# Experimental data published in PubChem BioAssay AID2685 (National Center for Advancing Translational Sciences (NCATS), 2010).
# This is one part of the list. These are further read-outs of the screen, such as a control signal, another cell line or another target. No call is given for them. The list favours compounds with an active or inconclusive main result. Words in brackets tell the shape of the fitted curve; partial curves, single points and poor fits give uncertain potencies. Where a SMILES comes first, the peptide text is derived from it. [ ]: non-standard residue; d: D form. The star is where a group is joined. Phe(4-Me) = Cc1ccc(C[CH](N)C(=O)O)cc1; Bz = O=C(c1ccccc1)*
# Assay: qHTS Assay for Lipid Storage Modulators in Drosophila S3 Cells;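 for cell number change: cells counted by Cell Tracker Red CMTPX staining in the red channel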
# Settings: BODIPY lipid droplet fluorescence, 18-24 h; for cell number change: measured here: cell count max response, cells fed with added oleic acid
# In short: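 Drosophila S3 cells got compounds at several concentrations plus oleic acid (400 uM solution). Laser-scanning cytometry with 488 nm excitation read lipid droplets at 500-530 nm and cells at 575-640 nm. Percent activity was relative to 20 uM Triacsin C.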
# [1] = measured here: lipid fluorescence (Fed channel) AC50, cells fed with added oleic acid
# [2] = measured here: cell number channel AC50, cells fed with added oleic acid
structure (smiles),measurement,setting,value
CSC(C1CCCC1)n1nnc2ccccc21 (configuration not stated),cell number change,,13.9%
same,AC50,[1],"0.0517 µM [rising, full curve, poor fit]"
O=C(CS(=O)(=O)c1ccc(F)cc1)Nc1nccs1,AC50,[1],"9.2 µM [rising, partial curve]"
CCn1c(=O)c(=O)[nH]c2cc(C(=O)N(C)Cc3ccc(OC)c(F)c3)ccc21,cell number change,,8.4%
same,AC50,[1],"6.51 µM [rising, single point]"
COc1cc2c(cc1OC)C(c1ccc(OC)c(OC)c1OC)CC(=O)N2 (configuration not stated),cell number change,,-12.7%
same,AC50,[1],"0.58 µM [rising, single point]"
CCS(=O)(=O)Nc1cccc(-c2nc3cccnc3s2)c1C,cell number change,,42.6%
same,AC50,[2],"6.51 µM [rising, partial curve]"
same,AC50,[1],"7.31 µM [rising, partial curve]"
O=C(O)CCCn1cc(NC(=O)COc2ccccc2F)cn1,cell number change,,23.8%
CCn1c(SCC(=O)Nc2cccnc2Cl)nnc1-c1ccccc1,cell number change,,34.2%
same,AC50,[2],"7.31 µM [rising, partial curve]"
same,AC50,[1],"3.26 µM [rising, single point]"
Cc1ccc(CC(NC(=O)c2ccccc2)C(=O)NC(Cc2ccccc2)C(=O)O)cc1 (configuration not stated) (Bz-[Phe(4-Me)]-Phe-OH; configuration not given here),cell number change,,-15.7%
same,AC50,[2],"6.51 µM [falling, single point]"
same,AC50,[1],"3.66 µM [falling, single point]"
COc1ccccc1NS(=O)(=O)c1cc(NC(=O)Nc2ccc(Cl)cc2Cl)ccc1N1CCCCC1,cell number change,,-9.73%
same,AC50,[1],"16.4 µM [falling, single point]"
O=[N+]([O-])c1ccc(S(=O)(=O)CC(CN2CCOCC2)N2CCOCC2)cc1 (configuration not stated),cell number change,,-3.73%
same,AC50,[2],"0.461 µM [falling, full curve]"
same,AC50,[1],"1.84 µM [falling, partial curve]"
CN(Cc1ccc(Br)s1)C(=O)CNC(=O)c1ccc2c(c1)OCO2,cell number change,,-21.1%
same,AC50,[1],"23.1 µM [falling, single point]"
O=c1[nH]c2ccc(Cl)cc2c(-c2ccccc2)c1SC(=S)N1CCCCC1,cell number change,,-71.9%
same,AC50,[2],"29.1 µM [falling, partial curve]"
same,AC50,[1],"18.4 µM [falling, single point]"
COc1ccccc1NC(=O)CCn1c(=S)oc2ccccc21,cell number change,,18.4%
Cn1c(SCc2nc(-c3ccc(Cl)cc3)no2)nnc1-c1ccccc1,cell number change,,81.8%
same,AC50,[2],"6.51 µM [rising, partial curve]"
same,AC50,[1],"6.51 µM [rising, single point]"
N#Cc1c(NC(=O)CSc2nc3ccccc3s2)sc2c1CCCC2,AC50,[2],"2.91 µM [rising, partial curve]"
same,AC50,[1],"9.2 µM [rising, partial curve, poor fit]"
CC(=O)Oc1ccc(/C=C(\NC(=O)c2ccco2)C(=O)Nc2ccc(C(C)=O)cc2)cc1,cell number change,,-14.5%
same,AC50,[2],"2.06 µM [falling, partial curve, poor fit]"
CC1=C/C(=N\OS(=O)(=O)c2ccccc2)C=CC1=O,cell number change,,-71.3%
same,AC50,[2],"1.64 µM [falling, full curve]"
same,AC50,[1],"1.16 µM [falling, full curve]"
COc1ccccc1CNC(=O)C12CC3CC(CC(C3)C1)C2,cell number change,,-7.25%
same,AC50,[1],"0.58 µM [falling, single point]"
CC(CNC(=O)C1CCCCC1C(=O)O)c1ccccc1 (configuration not stated),cell number change,,1.08%
CCc1noc(C)c1C(=O)N1CCN(S(=O)(=O)c2c(C)c(C)cc(C)c2C)CC1,cell number change,,-1.59%
same,AC50,[2],"5.8 µM [falling, single point]"
CC(C)Nc1ccc(C(CC(N)=O)NC(=O)Cc2ccc(Br)cc2)cc1[N+](=O)[O-] (configuration not stated),cell number change,,12.7%
same,AC50,[1],"18.4 µM [rising, single point]"
Cc1cc(C)c2nc(C(F)(F)F)nc(N3CCN(C(=O)c4ccco4)CC3)c2c1,cell number change,,-36.8%
same,AC50,[2],"2.06 µM [falling, full curve]"
same,AC50,[1],"6.51 µM [falling, partial curve, poor fit]"
CC(OC(=O)CCN1C(=O)C2CC=CCC2C1=O)C(=O)Nc1cccc(C#N)c1 (configuration not stated),cell number change,,19.3%
CCCN(CC(=O)Nc1ccccc1OC)C(=O)CCC(=O)c1ccc(OCC)cc1,cell number change,,-13.8%
same,AC50,[1],"4.11 µM [falling, partial curve]"
O=C(Cc1cccs1)Nc1ccc(N2CCOCC2)cc1,cell number change,,-0.0925%
same,AC50,[1],"0.116 µM [falling, single point]"
O=C(COc1ccc(Cl)cc1Cl)NC(=O)NC1CCCC1,cell number change,,20.1%
same,AC50,[2],"1.03 µM [rising, full curve, poor fit]"
COc1ccc(C(=O)NC2CCCc3ccccc32)cc1S(=O)(=O)N1CCOCC1 (configuration not stated),AC50,[2],"1.3 µM [rising, single point]"
COc1ccc(OC)c(S(=O)(=O)N(C)CC(=O)Nc2ccc3c(c2)OCO3)c1,cell number change,,-8.67%
same,AC50,[1],"0.259 µM [rising, partial curve]"
CCN1C(=O)CC(NNC(=O)c2ccc(Cl)cc2)C1=O (configuration not stated),AC50,[1],"18.4 µM [rising, single point]"
O=C1CC(Cc2ccccc2)C(=O)N1c1ccc(Cl)cn1 (configuration not stated),cell number change,,9.2%
same,AC50,[1],"29.1 µM [rising, single point]"
CCOc1ccc(Cc2c(Cl)nc(SC)nc2N(C)C)cc1,cell number change,,-8.99%
same,AC50,[1],"16.4 µM [rising, single point]"
CCOC(=O)C(CCOc1cccc(CC)c1)C(=O)OCC,cell number change,,13%
CC1CCCN(C(=O)c2ccc3c(c2NCCO)C(=O)c2ccccc2C3=O)C1 (configuration not stated),cell number change,,-51.7%
same,AC50,[2],"29.1 µM [falling, single point]"
CC1=C(C(=O)Nc2ccccc2)C(c2ccco2)C(C#N)=C(SCC(=O)OC(C)C)N1 (configuration not stated),cell number change,,-8.7%
Cc1occc1C(=O)N/N=C/C1=C(N2CCOCC2)C(=C\c2ccc(Cl)cc2Cl)/CC1,cell number change,,-0.669%
same,AC50,[1],"16.4 µM [falling, single point]"
CCOc1ncccc1C(=O)Nc1ccc2c(c1)OCCCO2,cell number change,,79.1%
same,AC50,[2],"10.3 µM [rising, partial curve]"
CCn1c(NCc2cc(OC)ccc2OC)nc2ccccc21,cell number change,,-0.0288%
CC1CN(Cc2c(O)ccc3c2oc(=O)c2ccccc23)CC(C)O1 (configuration not stated),cell number change,,30.6%
same,AC50,[2],"29.1 µM [rising, single point]"
same,AC50,[1],"29.1 µM [rising, single point]"
O=[N+]([O-])c1cc(-c2nc(-c3ccncc3)no2)ccc1Cl,cell number change,,-26.3%
same,AC50,[1],"0.517 µM [falling, partial curve, poor fit]"
CC1C=CCC2C(=O)N(c3ccc(OC(=O)c4cccs4)cc3)C(=O)C12 (configuration not stated),cell number change,,11.3%
same,AC50,[2],"0.82 µM [falling, single point]"
CCNc1nc(SC(C)C(=O)OC)nc(N(C)C)n1 (configuration not stated),cell number change,,64.4%
CC(C)CN(C(=O)COC(=O)C1c2ccccc2Oc2ccccc21)C1CCS(=O)(=O)C1 (configuration not stated),cell number change,,30%
same,AC50,[1],"6.51 µM [rising, single point]"
CCCS(=O)(=O)N1CCN(C(=O)c2cccc(OC)c2)CC1,cell number change,,1.87%
same,AC50,[1],"3.26 µM [rising, single point]"
COc1ccc([C@@H]2C[C@@H](c3ccccc3)Oc3cc(C)cc(C)c32)cc1,cell number change,,-2.7%
same,AC50,[1],"18.4 µM [rising, partial curve, poor fit]"
Cc1cc(C(F)(F)F)nc(SCc2ccc(C(=O)O)o2)n1,cell number change,,-3.54%
same,AC50,[2],"0.651 µM [falling, full curve, poor fit]"
same,AC50,[1],"0.651 µM [falling, single point]"
NC(=O)C(c1cccc(Cl)c1)c1ncc(C(F)(F)F)cc1Cl (configuration not stated),cell number change,,10.6%
same,AC50,[1],"18.4 µM [rising, partial curve]"
O=C(CCN1C(=O)c2ccccc2S1(=O)=O)Nc1ccccc1,cell number change,,152%
O=[N+]([O-])c1cc(/C=N/O)ccc1N1CCCC1,cell number change,,26.6%
same,AC50,[1],"4.11 µM [rising, full curve]"
CC(=O)C1=C(C)OC(N)=C(C#N)C1c1cc2cccc(C)c2nc1Cl (configuration not stated),cell number change,,-10.7%
same,AC50,[1],"4.11 µM [falling, partial curve, poor fit]"
CC(=O)Nc1ccc(NC(=O)C(C)OC(=O)C2CCCC2)cc1 (configuration not stated),cell number change,,2.86%
same,AC50,[1],"0.291 µM [rising, full curve, poor fit]"
O=C(O)c1ccccc1C1=Nc2ccc(O)cc2Oc2cc(O)ccc21,cell number change,,9.67%
same,AC50,[2],"0.00461 µM [falling, full curve, poor fit]"
same,AC50,[1],"0.731 µM [falling, single point]"
O=C(Nc1ccc(Cl)cc1)Nc1ccc(Cl)c(Cl)c1,cell number change,,-82.2%
same,AC50,[2],"8.2 µM [falling, partial curve]"
same,AC50,[1],"3.66 µM [falling, single point]"
O=C(CC1SC(=Nc2ccc(O)cc2)NC1=O)Nc1ccccc1 (configuration not stated),cell number change,,17.1%
same,AC50,[1],"0.731 µM [rising, single point]"
COc1ccc(C(=O)NC2CC2)cc1OC1CCN(Cc2cc(C)c(C)cc2C)CC1,cell number change,,16.1%
same,AC50,[1],"32.6 µM [rising, partial curve, poor fit]"
Cc1cc(C(=O)Nc2ccc(CC(=O)O)cc2)c(C)o1,cell number change,,11.8%
same,AC50,[1],"6.51 µM [falling, single point]"
COc1ccccc1CNC(=O)C1CCC(=O)N(CCCc2ccccc2)C1 (configuration not stated),cell number change,,-3.06%
CCOC(=O)c1ccc(Oc2nc(NC)nc(Nc3ccccc3)n2)cc1,cell number change,,36.9%
same,AC50,[2],"0.651 µM [rising, full curve]"
same,AC50,[1],"0.184 µM [rising, full curve, poor fit]"
Cc1cccc(CSC(Nc2ccc(F)cc2)=C(C#N)C#N)c1,cell number change,,-29.3%
same,AC50,[2],"0.0231 µM [falling, full curve, poor fit]"
same,AC50,[1],"0.731 µM [falling, full curve]"

# In a second layout: entries from further up.
structure (smiles) | measurement | setting | value
CC1=C/C(=N\OS(=O)(=O)c2ccccc2)C=CC1=O | AC50 | [2] | 1.64 µM [falling, full curve]
same | AC50 | [1] | 1.16 µM [falling, full curve]
COc1ccccc1CNC(=O)C12CC3CC(CC(C3)C1)C2 | cell number change |  | -7.25%
same | AC50 | [1] | 0.58 µM [falling, single point]
CC(CNC(=O)C1CCCCC1C(=O)O)c1ccccc1 (configuration not stated) | cell number change |  | 1.08%

# An excerpt of these results, bar-delimited:
structure (smiles) | measurement | setting | value
CC(OC(=O)CCN1C(=O)C2CC=CCC2C1=O)C(=O)Nc1cccc(C#N)c1 (configuration not stated) | cell number change |  | 19.3%
CCCN(CC(=O)Nc1ccccc1OC)C(=O)CCC(=O)c1ccc(OCC)cc1 | cell number change |  | -13.8%
